Here are results for one substance from paper PMC7816514.

The chains behind the UniProt entries cited, without tags or fusion partners.
UniProt P50591: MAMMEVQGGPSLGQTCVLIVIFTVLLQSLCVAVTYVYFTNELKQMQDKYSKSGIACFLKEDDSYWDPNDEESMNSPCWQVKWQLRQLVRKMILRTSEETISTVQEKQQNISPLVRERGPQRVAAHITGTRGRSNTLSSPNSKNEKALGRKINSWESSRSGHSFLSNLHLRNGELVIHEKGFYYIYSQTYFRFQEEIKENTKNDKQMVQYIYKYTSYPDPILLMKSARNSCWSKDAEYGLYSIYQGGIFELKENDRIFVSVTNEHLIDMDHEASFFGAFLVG

These are yes or no findings as the source states them, for the method shown. In cells and extracts the contact can be indirect. Some results given as binding are weak or reduced against the parent protein; the word gives no strength. Tags and fused reporters may be left off the sequences shown.

The target of this assay is T1, Immediate early response gene 3 protein (IER3), Flag-tagged, expressed in Huh7 cells (human) (UniProt P46695).
T1 sequence: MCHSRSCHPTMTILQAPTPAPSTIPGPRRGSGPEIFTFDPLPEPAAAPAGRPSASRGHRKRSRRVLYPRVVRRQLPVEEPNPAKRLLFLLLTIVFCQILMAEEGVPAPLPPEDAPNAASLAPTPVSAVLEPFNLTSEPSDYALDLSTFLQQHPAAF
Description: co-IP; Huh7 cells co-transfected with Myc-TRAIL and Flag-IER3; RIPA lysates; IP with IER3- or Flag-antibody beads, reverse IP with anti-Myc or anti-TRAIL; 12 h at 4 °C; Western blot.

In the case of “Tumor necrosis factor-related apoptosis-inducing ligand (TRAIL), Myc-tagged (from UniProt P50591 1-281)”, the binding result is reported as “binds”.
